Paper PMC9243202
Where two headings read alike, the source gives them in different places. These are yes or no findings as the source states them, for the method shown. In cells and extracts the contact can be indirect. Here binding means that the protein was enriched with, or labelled near, the bait; the list need not be complete. Blank lines part the entries; values can stand above or below the molecule they belong to.

Amino acid sequences for entries named in this document (tags omitted).
UniProt Q9H081: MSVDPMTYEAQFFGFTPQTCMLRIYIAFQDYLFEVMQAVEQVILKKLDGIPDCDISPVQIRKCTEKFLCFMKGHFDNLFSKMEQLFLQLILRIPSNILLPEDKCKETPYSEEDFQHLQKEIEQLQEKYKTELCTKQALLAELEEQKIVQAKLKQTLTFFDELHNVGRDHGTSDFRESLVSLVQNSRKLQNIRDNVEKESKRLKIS
UniProt Q96IY1: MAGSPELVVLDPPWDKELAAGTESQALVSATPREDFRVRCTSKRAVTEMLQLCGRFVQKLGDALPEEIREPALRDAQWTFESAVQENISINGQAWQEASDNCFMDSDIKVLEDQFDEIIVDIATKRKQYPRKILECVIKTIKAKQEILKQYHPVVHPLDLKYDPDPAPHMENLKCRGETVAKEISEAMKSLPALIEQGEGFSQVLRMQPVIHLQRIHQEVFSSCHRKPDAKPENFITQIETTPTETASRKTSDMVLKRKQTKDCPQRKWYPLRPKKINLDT

How the values were obtained:
[1] = target: FLAG-tagged FTO (fat mass of obesity-associated protein) (UniProt Q9C0B1); test: affinity purification with mass spectrometry; FLAG-tagged FTO ectopically expressed in HEK293T cells; co-IP with an anti-FLAG antibody, followed by LC-MS/MS
[2] = target: FLAG-tagged FTO (fat mass of obesity-associated protein) (UniProt Q9C0B1); test: as above; remark: listed apart in the source

binding [1]: binds
Molecule: MIS12 (from UniProt Q9H081 1-205)

binding [1]: binds
Molecule: NSL1 (from UniProt Q96IY1 1-281)

binding [2]: binds
B1: RB1 (protein, UniProt P06400 1-928)
chain: MPPKTPRKTAATAAAAAAEPPAPPPPPPPEEDPEQDSGPEDLPLVRLEFEETEEPDFTALCQKLKIPDHVRERAWLTWEKVSSVDGVLGGYIQKKKELWGICIFIAAVDLDEMSFTFTELQKNIEISVHKFFNLLKEIDTSTKVDNAMSRLLKKYDVLFALFSKLERTCELIYLTQPSSSISTEINSALVLKVSWITFLLAKGEVLQMEDDLVISFQLMLCVLDYFIKLSPPMLLKEPYKTAVIPINGSPRTPRRGQNRSARIAKQLENDTRIIEVLCKEHECNIDEVKNVYFKNFIPFMNSLGLVTSNGLPEVENLSKRYEEIYLKNKDLDARLFLDHDKTLQTDSIDSFETQRTPRKSNLDEEVNVIPPHTPVRTVMNTIQQLMMILNSASDQPSENLISYFNNCTVNPKESILKRVKDIGYIFKEKFAKAVGQGCVEIGSQRYKLGVRLYYRVMESMLKSEEERLSIQNFSKLLNDNIFHMSLLACALEVVMATYSRSTSQNLDSGTDLSFPWILNVLNLKAFDFYKVIESFIKAEGNLTREMIKHLERCEHRIMESLAWLSDSPLFDLIKQSKDREGPTDHLESACPLNLPLQNNHTAADMYLSPVRSPKKKGSTTRVNSTANAETQATSAFQTQKPLKSTSLSLFYKKVYRLAYLRLNTLCERLLSEHPELEHIIWTLFQHTLQNEYELMRDRHLDQIMMCSMYGICKVKNIDLKFKIIVTAYKDLPHAVQETFKRVLIKEEEYDSIIVFYNSVFMQRLKTNILQYASTRPPTLSPIPHIPRSPYKFPSSPLRIPGGNIYISPLKSPYKISEGLPTPTKMTPRSRILVSIGESFGTSEKFQKINQMVCNSDRVLKRSAEGSNPPKPLKKLRFDIEGSDEADGSKHLPGESKFQQKLAEMTSTRTRMQKQKMNDSMDTSNKEEK
